Results are given in words; binding and its absence hold for the method and conditions named. Binding seen in cells or lysates may run through a third protein. Some entries that bind do so weakly or less than the wild type.

The chains behind the UniProt entries cited, without tags or fusion partners.
UniProt P04150: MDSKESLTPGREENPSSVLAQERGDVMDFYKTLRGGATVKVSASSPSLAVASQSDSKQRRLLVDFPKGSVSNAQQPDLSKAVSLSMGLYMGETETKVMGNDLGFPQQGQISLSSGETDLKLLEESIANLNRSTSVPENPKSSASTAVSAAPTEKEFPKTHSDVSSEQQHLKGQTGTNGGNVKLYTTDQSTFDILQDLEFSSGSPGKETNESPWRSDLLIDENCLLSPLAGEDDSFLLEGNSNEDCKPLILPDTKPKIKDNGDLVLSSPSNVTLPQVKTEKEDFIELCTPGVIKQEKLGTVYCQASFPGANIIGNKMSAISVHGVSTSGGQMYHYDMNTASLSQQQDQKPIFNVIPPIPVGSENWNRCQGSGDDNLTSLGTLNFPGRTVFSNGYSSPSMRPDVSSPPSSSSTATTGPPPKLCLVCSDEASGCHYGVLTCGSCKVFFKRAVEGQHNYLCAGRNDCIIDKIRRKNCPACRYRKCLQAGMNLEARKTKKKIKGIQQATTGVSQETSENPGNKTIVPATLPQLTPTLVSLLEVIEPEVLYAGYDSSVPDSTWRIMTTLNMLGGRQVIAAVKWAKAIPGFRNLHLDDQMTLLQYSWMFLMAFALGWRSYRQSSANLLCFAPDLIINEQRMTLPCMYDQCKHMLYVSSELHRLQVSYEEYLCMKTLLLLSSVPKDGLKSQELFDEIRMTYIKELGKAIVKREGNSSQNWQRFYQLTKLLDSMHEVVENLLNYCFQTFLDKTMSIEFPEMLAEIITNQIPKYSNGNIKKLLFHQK

Holding throughout (test): co-IP
One assay has as its target Flag-Hsp90α WT (human) (UniProt P07900).
Assay [1] concerns the target Flag-Hsp90α-Y627F (human) (UniProt P07900).
The target in assay [2] is Flag-Hsp90α-Y627E (human) (UniProt P07900).

Take “glucocorticoid receptor (GR) (from UniProt P04150 1-777)”: the binding result (with Flag-Hsp90α WT (human); in assay [1]; in assay [2]) was “binds” in each case.

Consider v-SRC (from UniProt P00524 1-526), for which the binding result (in the assay with Flag-Hsp90α WT (human); in assay [1]) was “binds” throughout.

The record behind these values is article PMC5458067.
